No constants are given. Whether binding was seen depends on the method and setting. For some assays here: In cells and extracts the contact can be indirect. Some binding calls cover weakened binding; strength is not graded here.

Assay [1] has as its target T1, PRE-MRNA PROCESSING PROTEIN 40b (AtPRP40b), recombinant (Arabidopsis thaliana) (UniProt F4JCC1).
T1 sequence: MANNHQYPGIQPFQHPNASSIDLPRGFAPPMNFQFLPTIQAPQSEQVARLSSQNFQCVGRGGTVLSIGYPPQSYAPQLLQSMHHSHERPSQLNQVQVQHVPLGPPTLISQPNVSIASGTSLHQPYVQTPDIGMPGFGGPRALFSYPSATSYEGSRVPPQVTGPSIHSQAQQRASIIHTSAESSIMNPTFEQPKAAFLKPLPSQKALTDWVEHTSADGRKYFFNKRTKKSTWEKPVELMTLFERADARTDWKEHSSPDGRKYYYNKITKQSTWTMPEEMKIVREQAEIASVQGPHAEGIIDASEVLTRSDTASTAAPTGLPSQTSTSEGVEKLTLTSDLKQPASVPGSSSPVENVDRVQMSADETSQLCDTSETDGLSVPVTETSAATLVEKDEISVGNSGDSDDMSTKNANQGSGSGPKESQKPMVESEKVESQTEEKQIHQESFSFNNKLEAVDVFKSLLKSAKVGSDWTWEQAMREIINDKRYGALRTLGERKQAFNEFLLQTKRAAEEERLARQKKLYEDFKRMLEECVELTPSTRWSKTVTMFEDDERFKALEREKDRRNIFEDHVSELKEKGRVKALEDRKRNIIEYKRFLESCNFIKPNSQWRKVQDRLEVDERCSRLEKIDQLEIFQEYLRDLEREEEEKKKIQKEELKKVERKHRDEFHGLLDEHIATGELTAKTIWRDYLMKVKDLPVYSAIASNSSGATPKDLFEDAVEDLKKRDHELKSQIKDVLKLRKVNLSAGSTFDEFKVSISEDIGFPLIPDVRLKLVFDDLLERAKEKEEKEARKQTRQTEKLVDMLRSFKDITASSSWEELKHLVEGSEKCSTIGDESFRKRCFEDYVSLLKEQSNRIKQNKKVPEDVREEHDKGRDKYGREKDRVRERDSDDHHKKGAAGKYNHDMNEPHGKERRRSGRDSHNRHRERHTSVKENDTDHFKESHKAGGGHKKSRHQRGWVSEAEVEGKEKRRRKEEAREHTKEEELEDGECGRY
As to the kind of experiment: pull-down; 2 µg biotinylated CTD peptide on streptavidin paramagnetic particles; 2 µg of SE variant and AtPRP40b together; 1.5 h at 4°C in PBS pH 8.3, 5% glycerol, 1 mM DTT, 0.1% NP-40; five washes, immunoblot; both purified.

Assay [2] addresses T2, SERRATE (SE), in Arabidopsis cell nuclei (Arabidopsis thaliana (endogenous in Arabidopsis leaf nuclei)) (UniProt Q9ZVD0).
T2 sequence: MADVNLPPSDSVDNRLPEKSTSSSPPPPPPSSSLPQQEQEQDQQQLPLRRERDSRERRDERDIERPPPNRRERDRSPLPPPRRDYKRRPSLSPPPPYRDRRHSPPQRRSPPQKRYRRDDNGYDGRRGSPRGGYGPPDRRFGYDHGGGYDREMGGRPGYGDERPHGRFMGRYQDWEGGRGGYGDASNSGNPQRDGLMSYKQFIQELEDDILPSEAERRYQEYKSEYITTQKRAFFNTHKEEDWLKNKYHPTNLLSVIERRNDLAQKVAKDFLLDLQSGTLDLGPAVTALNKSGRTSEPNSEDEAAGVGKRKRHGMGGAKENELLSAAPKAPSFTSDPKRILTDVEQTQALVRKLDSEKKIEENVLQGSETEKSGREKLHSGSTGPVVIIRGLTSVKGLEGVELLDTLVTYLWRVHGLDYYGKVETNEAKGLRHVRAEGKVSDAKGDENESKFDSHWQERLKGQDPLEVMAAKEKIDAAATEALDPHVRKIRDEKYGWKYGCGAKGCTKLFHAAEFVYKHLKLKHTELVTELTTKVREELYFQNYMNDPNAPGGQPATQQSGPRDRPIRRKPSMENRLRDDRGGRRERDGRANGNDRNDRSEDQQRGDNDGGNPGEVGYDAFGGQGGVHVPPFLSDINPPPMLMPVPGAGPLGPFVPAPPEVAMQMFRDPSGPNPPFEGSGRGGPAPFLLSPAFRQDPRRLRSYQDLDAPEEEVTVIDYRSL
The assay is described as follows: proximity ligation; Duolink In Situ Orange Kit on nuclei isolated from fixed Arabidopsis leaves; WT, prp40ab and se-2 plants; rabbit antibodies to SE or AtPRP40b, rat antibodies to phosphorylated RNAPII.

B1: SE protein lacking 40 C-terminal amino acids (SEΔ681-720), recombinant (domain or fragment, UniProt Q9ZVD0 1-680)
chain: MADVNLPPSDSVDNRLPEKSTSSSPPPPPPSSSLPQQEQEQDQQQLPLRRERDSRERRDERDIERPPPNRRERDRSPLPPPRRDYKRRPSLSPPPPYRDRRHSPPQRRSPPQKRYRRDDNGYDGRRGSPRGGYGPPDRRFGYDHGGGYDREMGGRPGYGDERPHGRFMGRYQDWEGGRGGYGDASNSGNPQRDGLMSYKQFIQELEDDILPSEAERRYQEYKSEYITTQKRAFFNTHKEEDWLKNKYHPTNLLSVIERRNDLAQKVAKDFLLDLQSGTLDLGPAVTALNKSGRTSEPNSEDEAAGVGKRKRHGMGGAKENELLSAAPKAPSFTSDPKRILTDVEQTQALVRKLDSEKKIEENVLQGSETEKSGREKLHSGSTGPVVIIRGLTSVKGLEGVELLDTLVTYLWRVHGLDYYGKVETNEAKGLRHVRAEGKVSDAKGDENESKFDSHWQERLKGQDPLEVMAAKEKIDAAATEALDPHVRKIRDEKYGWKYGCGAKGCTKLFHAAEFVYKHLKLKHTELVTELTTKVREELYFQNYMNDPNAPGGQPATQQSGPRDRPIRRKPSMENRLRDDRGGRRERDGRANGNDRNDRSEDQQRGDNDGGNPGEVGYDAFGGQGGVHVPPFLSDINPPPMLMPVPGAGPLGPFVPAPPEVAMQMFRDPSGPNPPFEGSGR
In the case of B1, in assay [1], the binding result was “no binding (tested: 2 µg of SE variant)”.

B2: AtPRP40b, endogenous in Arabidopsis cell nuclei (protein, UniProt F4JCC1 1-992)
chain: MANNHQYPGIQPFQHPNASSIDLPRGFAPPMNFQFLPTIQAPQSEQVARLSSQNFQCVGRGGTVLSIGYPPQSYAPQLLQSMHHSHERPSQLNQVQVQHVPLGPPTLISQPNVSIASGTSLHQPYVQTPDIGMPGFGGPRALFSYPSATSYEGSRVPPQVTGPSIHSQAQQRASIIHTSAESSIMNPTFEQPKAAFLKPLPSQKALTDWVEHTSADGRKYFFNKRTKKSTWEKPVELMTLFERADARTDWKEHSSPDGRKYYYNKITKQSTWTMPEEMKIVREQAEIASVQGPHAEGIIDASEVLTRSDTASTAAPTGLPSQTSTSEGVEKLTLTSDLKQPASVPGSSSPVENVDRVQMSADETSQLCDTSETDGLSVPVTETSAATLVEKDEISVGNSGDSDDMSTKNANQGSGSGPKESQKPMVESEKVESQTEEKQIHQESFSFNNKLEAVDVFKSLLKSAKVGSDWTWEQAMREIINDKRYGALRTLGERKQAFNEFLLQTKRAAEEERLARQKKLYEDFKRMLEECVELTPSTRWSKTVTMFEDDERFKALEREKDRRNIFEDHVSELKEKGRVKALEDRKRNIIEYKRFLESCNFIKPNSQWRKVQDRLEVDERCSRLEKIDQLEIFQEYLRDLEREEEEKKKIQKEELKKVERKHRDEFHGLLDEHIATGELTAKTIWRDYLMKVKDLPVYSAIASNSSGATPKDLFEDAVEDLKKRDHELKSQIKDVLKLRKVNLSAGSTFDEFKVSISEDIGFPLIPDVRLKLVFDDLLERAKEKEEKEARKQTRQTEKLVDMLRSFKDITASSSWEELKHLVEGSEKCSTIGDESFRKRCFEDYVSLLKEQSNRIKQNKKVPEDVREEHDKGRDKYGREKDRVRERDSDDHHKKGAAGKYNHDMNEPHGKERRRSGRDSHNRHRERHTSVKENDTDHFKESHKAGGGHKKSRHQRGWVSEAEVEGKEKRRRKEEAREHTKEEELEDGECGRY
Take B2: in assay [2], the binding result is “binds”.

The values are drawn from paper PMC9709975, “Chromatin-associated microprocessor assembly is regulated by the U1 snRNP auxiliary protein PRP40” (The Plant Cell, 2022).
